From the supplement of paper PMC12819154, “High-throughput peptide-centric local stability assay extends protein–ligand identification to membrane proteins, tissues and bacteria” (Nature Structural & Molecular Biology, 2025)
The list shows a part of the results. Most values lie at the level of the controls, where differences are scatter.

By UniProt entry, the sequences of proteins in these tests, tags left out. Where a name states a change or a piece, a line headed by the entry shows the natural chain unless it says otherwise.
UniProt Q6PDY0: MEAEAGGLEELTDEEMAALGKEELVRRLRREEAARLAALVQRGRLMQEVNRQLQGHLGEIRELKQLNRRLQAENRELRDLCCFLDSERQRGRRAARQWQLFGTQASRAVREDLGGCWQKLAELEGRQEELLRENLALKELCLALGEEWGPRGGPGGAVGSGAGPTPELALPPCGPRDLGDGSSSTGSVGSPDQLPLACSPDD
UniProt Q6PCM2, whole entry: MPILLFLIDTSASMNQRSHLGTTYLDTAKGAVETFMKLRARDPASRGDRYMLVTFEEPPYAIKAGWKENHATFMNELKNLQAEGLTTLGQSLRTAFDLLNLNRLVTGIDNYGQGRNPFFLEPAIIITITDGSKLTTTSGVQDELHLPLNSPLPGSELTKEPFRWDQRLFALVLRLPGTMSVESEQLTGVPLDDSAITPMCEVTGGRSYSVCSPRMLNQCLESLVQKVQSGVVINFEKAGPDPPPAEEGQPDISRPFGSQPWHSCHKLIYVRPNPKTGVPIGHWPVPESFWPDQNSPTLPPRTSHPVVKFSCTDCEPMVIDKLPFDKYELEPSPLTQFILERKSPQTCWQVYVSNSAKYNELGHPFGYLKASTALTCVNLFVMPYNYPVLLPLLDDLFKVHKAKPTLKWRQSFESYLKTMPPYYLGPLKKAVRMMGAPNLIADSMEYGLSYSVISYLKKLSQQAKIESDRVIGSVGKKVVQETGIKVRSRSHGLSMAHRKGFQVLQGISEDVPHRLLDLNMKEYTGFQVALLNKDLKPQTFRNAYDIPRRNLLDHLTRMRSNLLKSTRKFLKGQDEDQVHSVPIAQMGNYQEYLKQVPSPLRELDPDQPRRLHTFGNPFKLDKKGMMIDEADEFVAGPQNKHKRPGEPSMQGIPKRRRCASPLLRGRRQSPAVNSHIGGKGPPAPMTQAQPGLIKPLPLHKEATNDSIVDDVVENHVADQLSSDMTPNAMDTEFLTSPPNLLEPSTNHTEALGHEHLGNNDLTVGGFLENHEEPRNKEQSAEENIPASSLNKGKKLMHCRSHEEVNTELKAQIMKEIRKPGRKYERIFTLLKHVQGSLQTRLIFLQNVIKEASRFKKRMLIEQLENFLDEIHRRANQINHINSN
UniProt Q6PGG2: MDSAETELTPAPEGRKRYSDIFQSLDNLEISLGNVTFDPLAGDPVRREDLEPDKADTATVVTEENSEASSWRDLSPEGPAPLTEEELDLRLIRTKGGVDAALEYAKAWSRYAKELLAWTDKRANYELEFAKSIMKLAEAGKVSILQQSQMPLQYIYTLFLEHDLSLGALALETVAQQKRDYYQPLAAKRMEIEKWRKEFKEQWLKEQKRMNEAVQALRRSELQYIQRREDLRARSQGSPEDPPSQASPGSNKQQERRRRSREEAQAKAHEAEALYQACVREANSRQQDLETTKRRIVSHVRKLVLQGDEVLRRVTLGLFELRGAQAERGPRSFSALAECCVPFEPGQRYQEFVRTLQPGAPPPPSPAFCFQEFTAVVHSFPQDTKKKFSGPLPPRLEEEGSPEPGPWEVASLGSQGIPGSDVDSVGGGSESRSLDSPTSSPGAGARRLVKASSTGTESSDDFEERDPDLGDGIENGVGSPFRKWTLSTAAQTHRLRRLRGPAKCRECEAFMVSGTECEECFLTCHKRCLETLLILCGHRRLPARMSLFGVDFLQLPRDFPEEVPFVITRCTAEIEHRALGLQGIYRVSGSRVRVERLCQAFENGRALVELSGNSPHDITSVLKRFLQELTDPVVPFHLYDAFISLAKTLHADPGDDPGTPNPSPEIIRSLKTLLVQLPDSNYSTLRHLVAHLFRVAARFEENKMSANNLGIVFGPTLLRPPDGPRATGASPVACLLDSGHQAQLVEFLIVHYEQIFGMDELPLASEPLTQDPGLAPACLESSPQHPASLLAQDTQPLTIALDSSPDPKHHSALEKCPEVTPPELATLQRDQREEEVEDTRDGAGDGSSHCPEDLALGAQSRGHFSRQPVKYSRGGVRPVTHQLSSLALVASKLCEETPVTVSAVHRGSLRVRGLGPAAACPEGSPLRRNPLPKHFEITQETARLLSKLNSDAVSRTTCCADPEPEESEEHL
UniProt Q69ZZ6, whole entry: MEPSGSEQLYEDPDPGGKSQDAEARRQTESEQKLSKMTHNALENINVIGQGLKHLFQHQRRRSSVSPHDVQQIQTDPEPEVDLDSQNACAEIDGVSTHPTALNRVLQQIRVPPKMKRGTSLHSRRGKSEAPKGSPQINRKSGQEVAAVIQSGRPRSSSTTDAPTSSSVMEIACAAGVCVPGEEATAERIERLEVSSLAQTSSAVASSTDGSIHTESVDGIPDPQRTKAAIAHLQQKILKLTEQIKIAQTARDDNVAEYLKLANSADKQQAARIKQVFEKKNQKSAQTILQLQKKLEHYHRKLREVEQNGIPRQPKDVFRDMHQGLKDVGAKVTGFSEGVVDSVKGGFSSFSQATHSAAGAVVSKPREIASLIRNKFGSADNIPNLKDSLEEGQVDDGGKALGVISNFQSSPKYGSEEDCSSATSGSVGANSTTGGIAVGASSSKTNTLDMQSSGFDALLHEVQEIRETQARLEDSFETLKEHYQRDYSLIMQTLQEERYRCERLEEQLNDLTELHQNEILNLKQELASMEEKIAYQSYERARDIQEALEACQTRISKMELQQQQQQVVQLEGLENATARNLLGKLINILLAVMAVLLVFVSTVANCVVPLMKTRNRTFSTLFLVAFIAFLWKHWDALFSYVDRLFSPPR
UniProt Q6PFY9: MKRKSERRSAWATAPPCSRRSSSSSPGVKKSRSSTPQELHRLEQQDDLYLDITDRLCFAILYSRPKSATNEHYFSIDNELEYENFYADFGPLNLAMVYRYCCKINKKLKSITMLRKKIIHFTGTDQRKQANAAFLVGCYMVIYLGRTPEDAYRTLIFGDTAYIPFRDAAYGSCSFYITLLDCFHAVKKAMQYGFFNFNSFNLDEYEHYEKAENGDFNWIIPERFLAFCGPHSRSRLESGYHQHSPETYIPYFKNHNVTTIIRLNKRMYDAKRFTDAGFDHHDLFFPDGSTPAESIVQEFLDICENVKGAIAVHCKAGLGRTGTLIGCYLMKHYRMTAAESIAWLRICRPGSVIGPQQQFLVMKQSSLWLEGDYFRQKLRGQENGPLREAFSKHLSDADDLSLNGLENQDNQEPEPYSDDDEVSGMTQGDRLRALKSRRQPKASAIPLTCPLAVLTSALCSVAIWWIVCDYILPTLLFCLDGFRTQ

Each target was assayed with CN[C@@H]1C[C@H]2O[C@@](C)([C@@H]1OC)n1c3ccccc3c3c4c(c5c6ccccc6n2c5c31)C(=O)NC4 [staurosporine] (assay: log2 fold change of tryptic peptide abundance, ligand vs vehicle (limited proteolysis) (log2 ratio); higher = more trypsin-susceptible (destabilized)). Conditions: ligand concentration: 20 uM; sample: mouse liver crude lysate; replicate design: treated separately.

| Target | log2 fold change |
| --- | --- |
| UniProt Q6PDY0 (peptide sequence: QLQGHLGEIR, peptide start residue: 52) | 0.6 |
| UniProt Q6PCM2 (peptide sequence: RPGEPSMQGIPK, peptide start residue: 643) | -0.989 |
| UniProt Q6PGG2 (peptide sequence: SELQYIQR, peptide start residue: 220) | -0.288 |
| UniProt Q69ZZ6 (peptide sequence: IAYQSYER, peptide start residue: 533) | 0.482 |
| UniProt Q6PFY9 (peptide sequence: GQENGPLR, peptide start residue: 380) | -0.212 |
